Reference: PMC8926402
No constants are given. Whether binding was seen depends on the method and setting. In cells and extracts the contact can be indirect. Some entries that bind do so weakly or less than the wild type.

Amino acid sequences for entries named in this document (tags omitted).
UniProt O75486: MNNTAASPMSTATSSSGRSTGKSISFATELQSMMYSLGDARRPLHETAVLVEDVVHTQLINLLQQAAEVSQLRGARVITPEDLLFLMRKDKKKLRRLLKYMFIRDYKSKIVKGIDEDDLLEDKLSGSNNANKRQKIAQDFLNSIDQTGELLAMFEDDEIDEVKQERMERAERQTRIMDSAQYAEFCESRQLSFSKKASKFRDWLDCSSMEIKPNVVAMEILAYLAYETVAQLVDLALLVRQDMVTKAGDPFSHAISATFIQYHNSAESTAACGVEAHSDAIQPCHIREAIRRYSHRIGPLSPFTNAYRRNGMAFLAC
UniProt Q96L91: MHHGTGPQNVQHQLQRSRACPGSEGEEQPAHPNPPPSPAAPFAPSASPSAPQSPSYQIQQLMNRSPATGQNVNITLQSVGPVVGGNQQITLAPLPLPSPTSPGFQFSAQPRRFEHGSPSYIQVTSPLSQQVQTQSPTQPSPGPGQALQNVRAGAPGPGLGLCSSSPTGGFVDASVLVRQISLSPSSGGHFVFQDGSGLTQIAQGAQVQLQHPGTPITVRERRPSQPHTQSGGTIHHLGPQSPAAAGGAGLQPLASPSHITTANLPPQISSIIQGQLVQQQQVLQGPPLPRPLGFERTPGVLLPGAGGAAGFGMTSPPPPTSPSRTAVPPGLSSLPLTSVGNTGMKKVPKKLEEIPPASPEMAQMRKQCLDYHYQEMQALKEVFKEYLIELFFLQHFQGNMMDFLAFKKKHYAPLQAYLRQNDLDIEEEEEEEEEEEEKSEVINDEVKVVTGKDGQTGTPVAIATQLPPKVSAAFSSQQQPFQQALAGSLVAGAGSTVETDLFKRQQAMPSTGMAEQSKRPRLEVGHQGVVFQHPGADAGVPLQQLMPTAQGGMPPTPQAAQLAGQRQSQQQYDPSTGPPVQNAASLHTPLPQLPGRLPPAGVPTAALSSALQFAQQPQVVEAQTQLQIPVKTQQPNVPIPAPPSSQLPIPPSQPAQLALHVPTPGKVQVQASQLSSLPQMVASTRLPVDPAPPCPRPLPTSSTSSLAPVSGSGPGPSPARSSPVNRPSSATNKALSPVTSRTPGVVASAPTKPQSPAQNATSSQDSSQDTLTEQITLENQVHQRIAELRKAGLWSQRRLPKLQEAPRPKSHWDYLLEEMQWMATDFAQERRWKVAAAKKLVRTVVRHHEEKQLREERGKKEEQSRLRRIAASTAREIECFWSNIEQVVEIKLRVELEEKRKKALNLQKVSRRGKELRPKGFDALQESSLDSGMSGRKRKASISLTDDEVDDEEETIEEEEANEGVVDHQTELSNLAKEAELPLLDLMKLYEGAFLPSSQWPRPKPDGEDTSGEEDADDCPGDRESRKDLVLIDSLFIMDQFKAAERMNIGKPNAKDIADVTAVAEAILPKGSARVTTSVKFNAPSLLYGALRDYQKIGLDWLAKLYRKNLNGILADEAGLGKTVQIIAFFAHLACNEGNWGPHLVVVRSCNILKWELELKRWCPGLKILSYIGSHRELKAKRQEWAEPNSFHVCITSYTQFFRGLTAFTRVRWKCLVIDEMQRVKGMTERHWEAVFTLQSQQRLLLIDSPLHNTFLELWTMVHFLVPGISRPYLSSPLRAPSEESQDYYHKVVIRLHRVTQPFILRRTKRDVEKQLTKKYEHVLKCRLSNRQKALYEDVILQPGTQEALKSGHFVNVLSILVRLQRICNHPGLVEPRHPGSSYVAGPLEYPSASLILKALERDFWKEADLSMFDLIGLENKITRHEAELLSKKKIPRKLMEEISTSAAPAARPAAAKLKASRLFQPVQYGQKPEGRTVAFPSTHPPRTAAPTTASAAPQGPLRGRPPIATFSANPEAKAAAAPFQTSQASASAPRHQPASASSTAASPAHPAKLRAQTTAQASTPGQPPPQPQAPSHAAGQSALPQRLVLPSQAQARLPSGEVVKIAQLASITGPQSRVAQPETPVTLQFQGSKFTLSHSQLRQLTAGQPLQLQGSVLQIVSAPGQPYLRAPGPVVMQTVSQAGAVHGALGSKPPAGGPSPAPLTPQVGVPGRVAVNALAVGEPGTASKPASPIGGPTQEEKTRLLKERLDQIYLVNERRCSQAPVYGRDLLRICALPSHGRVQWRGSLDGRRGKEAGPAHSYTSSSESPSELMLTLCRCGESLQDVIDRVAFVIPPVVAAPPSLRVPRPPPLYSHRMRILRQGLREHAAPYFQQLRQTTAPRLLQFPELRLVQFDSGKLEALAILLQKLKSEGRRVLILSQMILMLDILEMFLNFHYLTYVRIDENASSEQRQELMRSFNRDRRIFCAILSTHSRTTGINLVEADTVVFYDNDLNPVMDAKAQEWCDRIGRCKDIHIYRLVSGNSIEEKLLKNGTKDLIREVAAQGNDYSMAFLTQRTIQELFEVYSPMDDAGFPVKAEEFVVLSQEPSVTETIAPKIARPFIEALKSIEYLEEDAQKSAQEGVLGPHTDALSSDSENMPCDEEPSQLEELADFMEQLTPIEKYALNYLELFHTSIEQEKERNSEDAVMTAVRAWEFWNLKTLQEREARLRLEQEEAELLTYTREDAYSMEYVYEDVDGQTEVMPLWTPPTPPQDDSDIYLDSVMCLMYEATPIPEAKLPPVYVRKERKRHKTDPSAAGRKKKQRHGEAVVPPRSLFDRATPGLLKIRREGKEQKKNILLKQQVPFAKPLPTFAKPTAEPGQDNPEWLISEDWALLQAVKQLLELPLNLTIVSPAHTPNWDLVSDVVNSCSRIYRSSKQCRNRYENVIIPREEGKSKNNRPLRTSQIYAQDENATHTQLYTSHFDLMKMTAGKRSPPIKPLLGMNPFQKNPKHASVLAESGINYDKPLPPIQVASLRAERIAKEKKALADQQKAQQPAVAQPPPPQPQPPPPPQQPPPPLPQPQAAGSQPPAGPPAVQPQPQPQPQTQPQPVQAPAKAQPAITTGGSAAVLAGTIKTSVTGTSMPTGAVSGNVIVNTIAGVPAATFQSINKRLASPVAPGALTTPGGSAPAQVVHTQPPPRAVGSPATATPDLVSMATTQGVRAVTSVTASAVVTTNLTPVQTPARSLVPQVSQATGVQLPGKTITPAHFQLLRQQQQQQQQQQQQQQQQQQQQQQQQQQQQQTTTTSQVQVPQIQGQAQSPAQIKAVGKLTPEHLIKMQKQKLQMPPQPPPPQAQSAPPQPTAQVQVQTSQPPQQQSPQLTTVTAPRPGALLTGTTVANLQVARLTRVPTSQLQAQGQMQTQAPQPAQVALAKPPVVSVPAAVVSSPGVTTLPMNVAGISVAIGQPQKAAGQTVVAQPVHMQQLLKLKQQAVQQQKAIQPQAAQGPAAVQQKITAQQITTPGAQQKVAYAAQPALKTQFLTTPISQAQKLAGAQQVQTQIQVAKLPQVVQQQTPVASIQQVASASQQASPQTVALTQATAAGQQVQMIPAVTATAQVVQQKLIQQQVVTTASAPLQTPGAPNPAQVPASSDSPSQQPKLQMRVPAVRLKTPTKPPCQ
UniProt Q12962: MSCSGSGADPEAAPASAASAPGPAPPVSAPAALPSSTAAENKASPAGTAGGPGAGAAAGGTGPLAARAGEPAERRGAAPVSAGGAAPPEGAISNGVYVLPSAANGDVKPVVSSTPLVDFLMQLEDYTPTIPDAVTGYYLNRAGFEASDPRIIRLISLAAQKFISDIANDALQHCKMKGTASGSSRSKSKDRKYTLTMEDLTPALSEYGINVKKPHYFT
UniProt O75528: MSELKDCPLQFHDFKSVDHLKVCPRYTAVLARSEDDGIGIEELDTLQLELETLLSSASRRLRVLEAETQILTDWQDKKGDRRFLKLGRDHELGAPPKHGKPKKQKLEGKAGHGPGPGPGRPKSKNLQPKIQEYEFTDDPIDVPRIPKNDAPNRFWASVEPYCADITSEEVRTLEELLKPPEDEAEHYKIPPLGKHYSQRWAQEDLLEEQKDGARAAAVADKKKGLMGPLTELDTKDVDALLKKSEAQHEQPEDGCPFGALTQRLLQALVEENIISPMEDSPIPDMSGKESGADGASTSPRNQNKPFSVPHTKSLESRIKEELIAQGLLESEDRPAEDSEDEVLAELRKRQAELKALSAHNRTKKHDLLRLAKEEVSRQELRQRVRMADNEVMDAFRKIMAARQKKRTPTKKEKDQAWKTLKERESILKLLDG
UniProt Q96ES7: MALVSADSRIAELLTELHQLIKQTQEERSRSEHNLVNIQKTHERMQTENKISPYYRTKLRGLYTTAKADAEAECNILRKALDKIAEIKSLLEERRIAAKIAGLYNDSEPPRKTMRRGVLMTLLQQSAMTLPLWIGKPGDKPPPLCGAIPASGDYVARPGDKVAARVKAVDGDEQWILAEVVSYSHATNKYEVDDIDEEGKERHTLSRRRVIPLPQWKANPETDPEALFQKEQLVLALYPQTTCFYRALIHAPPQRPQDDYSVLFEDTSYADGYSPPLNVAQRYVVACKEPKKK
UniProt O94864: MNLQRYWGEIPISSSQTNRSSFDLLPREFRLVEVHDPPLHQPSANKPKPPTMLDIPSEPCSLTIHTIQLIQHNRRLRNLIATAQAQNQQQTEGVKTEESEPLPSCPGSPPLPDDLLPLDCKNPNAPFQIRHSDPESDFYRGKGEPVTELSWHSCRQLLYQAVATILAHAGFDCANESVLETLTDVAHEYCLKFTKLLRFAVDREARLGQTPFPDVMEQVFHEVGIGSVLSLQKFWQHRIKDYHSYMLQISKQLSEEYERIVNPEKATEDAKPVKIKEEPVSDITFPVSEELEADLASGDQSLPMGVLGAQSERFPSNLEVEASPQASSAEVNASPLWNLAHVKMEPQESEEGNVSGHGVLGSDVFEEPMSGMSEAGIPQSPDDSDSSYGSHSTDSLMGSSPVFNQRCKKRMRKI
UniProt Q9Y4R8: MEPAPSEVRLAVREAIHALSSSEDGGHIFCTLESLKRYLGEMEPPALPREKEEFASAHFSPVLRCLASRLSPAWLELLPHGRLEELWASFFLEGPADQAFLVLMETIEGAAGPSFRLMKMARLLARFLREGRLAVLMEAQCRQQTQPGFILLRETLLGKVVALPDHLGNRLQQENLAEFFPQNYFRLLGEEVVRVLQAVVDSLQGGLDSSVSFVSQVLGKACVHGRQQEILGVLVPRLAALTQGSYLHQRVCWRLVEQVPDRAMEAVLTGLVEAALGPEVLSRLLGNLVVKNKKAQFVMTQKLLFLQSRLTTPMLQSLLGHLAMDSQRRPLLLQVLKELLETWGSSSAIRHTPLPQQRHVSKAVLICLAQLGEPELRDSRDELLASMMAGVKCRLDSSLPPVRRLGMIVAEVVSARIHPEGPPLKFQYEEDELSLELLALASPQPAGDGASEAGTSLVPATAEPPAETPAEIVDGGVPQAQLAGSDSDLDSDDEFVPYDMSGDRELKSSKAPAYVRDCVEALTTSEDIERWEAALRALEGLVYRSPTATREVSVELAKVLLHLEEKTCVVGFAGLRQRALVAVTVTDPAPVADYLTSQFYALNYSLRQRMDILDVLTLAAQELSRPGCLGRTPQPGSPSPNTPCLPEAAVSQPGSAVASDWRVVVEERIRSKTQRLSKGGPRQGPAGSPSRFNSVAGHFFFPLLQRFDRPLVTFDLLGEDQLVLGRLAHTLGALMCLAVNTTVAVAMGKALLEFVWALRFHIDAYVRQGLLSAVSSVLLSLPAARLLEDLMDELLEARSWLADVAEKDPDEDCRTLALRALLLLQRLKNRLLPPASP
UniProt Q96BN2: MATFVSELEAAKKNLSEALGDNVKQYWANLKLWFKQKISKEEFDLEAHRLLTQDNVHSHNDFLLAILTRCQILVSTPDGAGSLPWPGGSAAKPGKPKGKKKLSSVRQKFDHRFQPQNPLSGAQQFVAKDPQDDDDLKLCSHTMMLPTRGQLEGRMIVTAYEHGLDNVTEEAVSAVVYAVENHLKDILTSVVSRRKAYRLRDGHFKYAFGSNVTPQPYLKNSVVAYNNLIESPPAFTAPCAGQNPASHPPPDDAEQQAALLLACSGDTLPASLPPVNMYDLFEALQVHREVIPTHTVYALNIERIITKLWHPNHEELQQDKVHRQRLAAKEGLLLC

Legend:
[1] = biological target: SUPT3H (human (endogenous in HCT116)) (UniProt O75486); test: co-IP; SUPT3H or EP400 immunoprecipitated from nuclear extracts of TELO2^AID HCT116 cells treated with auxin (TELO2 depletion) or NaOH for 24 hr; antibody-bound protein G-Sepharose beads overnight at 4°C; washes in 20 mM Tris-HCl pH 7.5, 150 mM NaCl, 0.1% Triton; immunoblot; beads-only control
[2] = biological target: EP400 (human (endogenous in HCT116)) (UniProt Q96L91); test: as above
[3] = biological target: TRRAP (human (endogenous in HCT116)) (UniProt Q9Y4A5); test: co-IP; TRRAP immunoprecipitated from the cytoplasmic extract of TELO2^AID HCT116 cells treated with auxin or NaOH for 48 hr; antibody-bound protein G-Sepharose beads overnight at 4°C; washes in 20 mM Tris-HCl pH 7.5, 150 mM NaCl, 0.1% Triton; immunoblot; beads-only control

| binding [1] | Substance | further results |
| --- | --- | --- |
| binds | TAF10 (from UniProt Q12962 1-218) | – |
| binds | TADA3 (from UniProt O75528 1-432) | – |
| binds | SGF29 (from UniProt Q96ES7 1-293) | – |
| binds | SUPT7L (from UniProt O94864 1-414) | – |
| – | TRRAP (from UniProt Q9Y4A5 1-3859) | binding [2]: binds |
| – | TELO2^AID (from UniProt Q9Y4R8 1-837) | binding [3]: binds |
| binds | TADA1 (from UniProt Q96BN2 1-335) | – |
